For experiment [1], the target named is C-terminal domain of SOX2 (aa 150-317) (human) (UniProt P48431). As to the kind of experiment: BLI; SOX2DBD or SOX2CTD with p300KIX or p300BD; who was immobilised is not stated (Supplementary Figure 6C, Supplementary Table 3); both purified. In general terms: Biolayer interferometry detects binding as a change in optical thickness at a sensor tip.
For experiment [2], the target named is DNA-binding domain of SOX2 (aa 39-127) (human) (UniProt P48431). The description is as above.

The chains behind the UniProt entries cited, without tags or fusion partners. Residues count along the entry.
DNA-binding domain of SOX2 (aa 39-127) (P48431, residues 39-127): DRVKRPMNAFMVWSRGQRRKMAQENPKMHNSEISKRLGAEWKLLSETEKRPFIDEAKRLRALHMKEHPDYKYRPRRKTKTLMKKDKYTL
C-terminal domain of SOX2 (aa 150-317) (P48431, residues 150-317): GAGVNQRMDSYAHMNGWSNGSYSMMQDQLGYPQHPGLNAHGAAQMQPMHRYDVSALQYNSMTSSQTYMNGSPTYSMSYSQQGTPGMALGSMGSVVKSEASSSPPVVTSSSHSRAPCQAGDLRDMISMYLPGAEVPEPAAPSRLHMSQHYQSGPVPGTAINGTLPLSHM
p300 KIX domain (aa 566-646) (Q09472, residues 566-646): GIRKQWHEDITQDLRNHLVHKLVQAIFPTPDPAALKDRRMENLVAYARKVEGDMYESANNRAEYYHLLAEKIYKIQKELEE
p300 bromodomain (aa 1067-1139) (Q09472, residues 1067-1139): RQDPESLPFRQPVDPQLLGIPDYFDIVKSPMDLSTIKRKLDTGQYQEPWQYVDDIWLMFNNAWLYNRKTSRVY

No constants are given. Whether binding was seen depends on the method and setting. Some results given as binding are weak or reduced against the parent protein; the word gives no strength.

As to “p300 KIX domain (aa 566-646) (from UniProt Q09472 566-646) (domain or fragment)”, the figures for the binding result in experiment [1] and in experiment [2] were “binds weakly” and “binds”, respectively.

“p300 bromodomain (aa 1067-1139) (from UniProt Q09472 1067-1139) (domain or fragment)”: the binding entry in experiment [1] and in experiment [2] was “binds weakly” each time.

The values above are taken from publication PMC10711550.
